Source: PubChem BioAssay AID2551 (National Center for Advancing Translational Sciences (NCATS), 2010)
Among all 310,000 compounds or so, about 17,000 (5.5%) were called active. The inconclusive results got no clear call from the source; some entries with a clear call stand among them for comparison. Calls come from the whole dose curve; as a rule, active = well fitted inhibition curve with a large enough effect; inconclusive = small, poorly fitted or top-dose-only effect, or effect the other way; inactive = no such curve, though single readings can be large or run the other way. Where the call is inconclusive, the potency comes from a doubtful curve fit.

By UniProt entry, the sequences of proteins in these tests, tags left out. Where a name states a change or a piece, a line headed by the entry shows the natural chain unless it says otherwise.
UniProt P51450: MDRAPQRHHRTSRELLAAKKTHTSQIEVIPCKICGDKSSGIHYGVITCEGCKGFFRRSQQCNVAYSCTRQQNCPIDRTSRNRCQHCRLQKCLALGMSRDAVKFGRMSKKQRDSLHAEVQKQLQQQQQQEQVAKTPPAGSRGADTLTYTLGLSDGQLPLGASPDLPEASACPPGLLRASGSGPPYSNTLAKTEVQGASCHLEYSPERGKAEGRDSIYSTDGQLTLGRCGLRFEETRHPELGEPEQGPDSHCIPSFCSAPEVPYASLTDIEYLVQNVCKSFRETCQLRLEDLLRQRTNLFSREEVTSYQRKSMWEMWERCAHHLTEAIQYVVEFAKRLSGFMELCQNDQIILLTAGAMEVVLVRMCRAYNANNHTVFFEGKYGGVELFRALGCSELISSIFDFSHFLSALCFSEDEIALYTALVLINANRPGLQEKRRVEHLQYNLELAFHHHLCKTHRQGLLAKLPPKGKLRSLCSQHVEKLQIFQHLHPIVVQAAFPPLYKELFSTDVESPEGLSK

molecular target: Nuclear receptor ROR-gamma (Mus musculus) (UniProt P51450); experiment: qHTS for inhibitors of ROR gamma transcriptional activity; details: Drosophila S2 Gal4-RORgamma UAS-luciferase reporter, 20 h; activity change, negative = inhibition: at 53.6 µM (top of the series); note: nearly all actives have a fitted effect of over 60% in size
How it was run: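 Compounds are pin-transferred onto Drosophila Schneider cells expressing a copper-inducible Gal4–ROR gamma transactivation domain fusion. After 1 hr, copper sulfate is added to 700 uM final; luciferase is read 20 hr later.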
% is set by controls: 0 for no effect and ±100 for the full control effect; potency is the fitted concentration of half-maximal effect.

Activity change, negative = inhibition, inactive:
COc1ccc(-c2noc(CSc3ccccc3)n2)cc1OC 4.5%, O=c1cc(-c2ccco2)oc2c1ccc1ccccc12 9.55%, CCCN1C(=O)c2cc(C(=O)Nc3cccc(C(C)=O)c3)ccc2C1Nc1cccc(C(C)=O)c1 (stereo unspecified) 18.2%, COc1ccc(OC)c(-n2c(-c3cccc(S(=O)(=O)N(C)C)c3)n[nH]c2=S)c1 -22.3%, COc1ccc(NC(=O)Nc2nnc(-c3cccs3)s2)cc1 -0.118%, CC(=O)Nc1ccc(-c2cc(NC(C)=O)n(-c3ccccc3)n2)cc1 6.24%, Cc1nccn1CC(O)COc1ccc(Cl)cc1Cl (stereo unspecified) 12.2%, O=C(O)c1cn(-c2ccccc2)nc1-c1ccc(F)cc1 17.2%, CCN(CC)S(=O)(=O)c1cccc(NC(=O)c2ccccc2Br)c1 6.78%, Cc1ccc(C)c(NS(=O)(=O)c2cc3c4c(c2)CC(=O)N4CCC3)c1 4.88%, O=[N+]([O-])c1ccc(COc2cccc(CNc3ccc(F)cc3)c2)cc1 22.8%, CC(C)(C)NC(=O)C(c1cccnc1)N(C(=O)c1ccc(Cl)nc1)C1CCCC1 (stereo unspecified) -2.29%, COCCNC(=O)COc1ccc(C)cc1C(=O)c1cc(C#N)c(=O)n(C2CC2)c1 28.9%, CC(C)C(NC(=O)c1ccc(C(C)(C)C)cc1)C(=O)Nc1cccc(S(N)(=O)=O)c1 (stereo unspecified) 11.3%, O=[N+]([O-])c1ccccc1-c1ccc(C(=S)N2CCCC2)o1 -6.39%, CCN(CC(=O)Nc1c(F)cccc1F)C(=O)c1ccc(Cl)c(S(=O)(=O)N2CCCCC2)c1 13.4%, CCOc1cc(C2Nc3ccccc3C(=O)N2c2ccccc2)c(Br)cc1OCC(=O)O (stereo unspecified) -1.54%, CCOc1ccc(CNC(=O)c2ccc(Sc3ccc(C)cc3)c(NC(C)=O)c2)cc1 1.85%, c1cncc(CNc2cc(-c3ccc4c(c3)OCO4)ncn2)c1 0.132%, O=C1CCCC2=C1C(c1cn(-c3ccccc3)nc1-c1cccs1)c1c([nH]c(=O)[nH]c1=O)N2 (stereo unspecified) 0.8% [at 10 µM], COC(=O)c1cnn(-c2nc(OC)cc(OC)n2)c1C -19.1%, Cc1cc(NC(=O)/C=C/c2ccccc2Cl)no1 19.2%, Cn1c(SCC(=O)N/N=C/c2ccccn2)nnc1-c1ccccc1 -9.45%

Potency, inconclusive:
NC(=O)CSc1ncnc2c1nnn2Cc1ccc(F)cc1 35.5 µM [inhibitor, single point], Oc1ccc(/C=N/N=C(c2ccccc2)c2ccccc2)c(O)c1O 20 µM [inhibitor, single point], Cc1occc1C(=O)O/N=C(\N)c1ccccc1 15.8 µM [inhibitor, single point], CCN(CC)CCNC(=O)CCc1c(C)nc2c(c(C)nn2-c2ccc(C)cc2)c1C 0.0063 µM [inhibitor, full curve, poor fit], CCOc1cc(C)ccc1OCc1nnc(SCC(=O)c2cccc([N+](=O)[O-])c2)n1CC 35.5 µM [inhibitor, single point], CN(CCOc1ccccc1)C(=O)C1CCC(=O)N(CCc2ccc(Cl)cc2)C1 (stereo unspecified) 11.2 µM [activator, partial curve], Cc1cc(C)c2c(N)c(C(=O)Nc3ccc(F)cc3)sc2n1 14.1 µM [inhibitor, single point], CC(C)CN(C(=O)COC(=O)c1ccc([N+](=O)[O-])o1)C1CCS(=O)(=O)C1 (stereo unspecified) 22.4 µM [inhibitor, single point], O=C(Cn1nc(-c2ccccc2)c2ccccc2c1=O)Nc1ccccn1 5.62 µM [activator, single point], O=C(CCNc1ccc(F)cc1)c1cc2ccccc2o1 35.5 µM [inhibitor, single point], O=c1sc(Nc2ccccc2)nc2ccsc12 7.08 µM [activator, partial curve], O=S(=O)(Cc1ccccc1)NCc1cccnc1 35.5 µM [activator, single point], CCN1C(=O)C(CC(=O)Nc2ccc(F)cc2)N(Cc2ccc3c(c2)OCO3)C1=S (stereo unspecified) 15.8 µM [activator, single point], O=C(CCN1C(=O)c2ccccc2S1(=O)=O)Nc1nc2c(s1)CCCC2 10 µM [activator, partial curve, poor fit], Cc1cc(C(=O)N/N=C/c2ccc([N+](=O)[O-])cc2)c2ccccc2n1 3.16 µM [inhibitor, single point], O=C1Nc2ccccc2Oc2cc([N+](=O)[O-])cc(Oc3ccccc3)c21 35.5 µM [activator, single point], Cc1ccc(C)n1-c1ccsc1C(=O)CC#N 35.5 µM [inhibitor, single point], Brc1ccc(-c2nc(-c3ccccn3)no2)o1 31.6 µM [inhibitor, single point], CCCN(CC(=O)Nc1cccc(Br)c1)CC(=O)Nc1ccc(F)c(F)c1F 6.31 µM [activator, single point], CCOC(=O)c1ccc(-c2ccc(C=O)o2)cc1 11.2 µM [inhibitor, single point], COc1cccc(/C=C/C(=O)c2c(O)cc(C)oc2=O)c1O 3.98 µM [activator, full curve, poor fit], Cc1cc(C)c2ccc(C)[n+]([O-])c2c1O 28.2 µM [inhibitor, single point], COc1cccc(Oc2ccc(C(F)(F)F)cc2NC(=O)C2=COCCO2)c1 0.141 µM [inhibitor, full curve, poor fit], Cc1ccc(SCCNC(=O)c2ccc(C)c(S(=O)(=O)Nc3ccccc3C)c2)cc1 12.6 µM [activator, single point], Cc1cc(Cl)ccc1OCC(=O)N[C@@H](Cc1ccccc1)c1nc2ccccc2[nH]1 35.5 µM [inhibitor, single point], CCNc1nc(Oc2ccc(Cl)cc2Cl)cc(C(F)(F)F)n1 10 µM [activator, single point], Cc1ccc(C(=O)Nc2ccc3c(c2)OCO3)cc1S(=O)(=O)N1CCCC1 3.98 µM [activator, partial curve], Cn1c2ccccc2c(=O)c2ccc(C#CC3(O)CCCCC3)cc21 11.2 µM [inhibitor, single point], CC(c1ccccc1)C1CC(=O)N(C2CCCCC2)C1=O (stereo unspecified) 2.51 µM [inhibitor, partial curve], CCn1cnc2c1c(=O)n(Cc1ccc(C(=O)OC)cc1)c(=O)n2Cc1ccccc1 11.2 µM [activator, single point], Cc1nc2ccccc2n1C1CCN(CC(=O)NCc2ccc(F)cc2)CC1 17.8 µM [activator, single point], COc1ccc(CCNC(=O)c2cc(=O)[nH]c3ccc(Br)cc23)cc1OC 1.58 µM [activator, partial curve], NC(=O)CCS(=O)(=O)CCN1CCCCC1 0.0063 µM [activator, full curve], NC(=O)c1sc2nc3c(c(-c4cccnc4)c2c1N)CCC3 35.5 µM [inhibitor, single point], O=[N+]([O-])c1cccn2cc(-c3ccc(Br)cc3)nc12 3.55 µM [activator, full curve], O=C(NCc1ccc(Cl)cc1)c1noc2c1CCCCC2 12.6 µM [activator, partial curve], COc1ccc(-c2nc3ccccn3c2NCc2ccc3c(c2)OCO3)cc1 35.5 µM [inhibitor, single point]

Potency, active:
COc1ccc(-n2c(=S)[nH]c3sc4c(c3c2=O)CCc2ccccc2-4)cc1 0.447 µM, Cc1ccc(-c2cc(C(=O)Nc3nccs3)c3ccccc3n2)c(C)c1 4.47 µM, Cc1nn(Cc2n[nH]c(=S)n2Cc2ccccc2)c(C)c1Cl 5.62 µM, COc1ccccc1/C=C/C(=O)c1c2c(c(C)[nH]c1=O)CCCC2 5.62 µM, COc1cccc(C(=O)CC(=O)C(=O)Nc2cccc([N+](=O)[O-])c2C)c1 14.1 µM, Cc1ccc(-n2c(Cc3ccccc3)n[nH]c2=S)cc1 3.98 µM, CCCn1c(N)c(C(=O)CSc2nc3ccccc3c(=O)n2Cc2ccccc2)c(=O)[nH]c1=O 5.01 µM, CC(C1CC1)N(Cc1ccccc1)C(=S)Nc1cccc(C(F)(F)F)c1 (stereo unspecified) 11.2 µM, CC(C)(C)C#CCn1c(/C=[N+](\[O-])C2CCCCC2)nc2ccccc21 10 µM, COc1ccccc1-c1cc(-c2ccccc2)nc(SC(C(N)=O)c2ccccc2)c1C#N (stereo unspecified) 11.2 µM, C=CCN=c1scc(C)n1/N=C/c1ccc(O)c(O)c1 17.8 µM, S=C(Nc1ccc2nsnc2c1)N1CCCC1 7.94 µM, COc1ccc(-n2cnc3cc(NCc4cccs4)ccc32)cc1 14.1 µM, O=C(N/N=C/c1ccc([N+](=O)[O-])o1)c1sc2ccccc2c1Cl 2.51 µM, COc1ccc(NC(=S)NC(=O)c2ccc(Br)o2)cc1 1 µM, O=C(Nc1nc(-c2ccccn2)cs1)c1ccco1 7.08 µM
